Experimental data published in paper doi:10.1101/2022.07.11.499655.
Results are given in words; binding and its absence hold for the method and conditions named. Binding seen in cells or lysates may run through a third protein. Some results given as binding are weak or reduced against the parent protein; the word gives no strength.

The chains behind the UniProt entries cited, without tags or fusion partners.
UniProt O15379: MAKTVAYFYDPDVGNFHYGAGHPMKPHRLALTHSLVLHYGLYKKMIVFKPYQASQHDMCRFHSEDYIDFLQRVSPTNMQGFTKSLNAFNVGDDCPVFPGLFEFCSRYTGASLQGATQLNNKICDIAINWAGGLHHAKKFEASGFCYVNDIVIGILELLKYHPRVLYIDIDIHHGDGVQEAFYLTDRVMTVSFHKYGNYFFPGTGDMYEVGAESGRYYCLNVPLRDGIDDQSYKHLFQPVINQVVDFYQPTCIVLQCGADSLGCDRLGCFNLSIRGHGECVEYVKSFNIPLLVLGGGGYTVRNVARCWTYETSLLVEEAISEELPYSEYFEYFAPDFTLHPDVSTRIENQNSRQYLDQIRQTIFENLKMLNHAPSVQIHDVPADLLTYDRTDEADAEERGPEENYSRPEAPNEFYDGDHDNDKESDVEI

Target: T1, JunB (human (endogenous in THP-1)) (UniProt P17275)
T1 sequence: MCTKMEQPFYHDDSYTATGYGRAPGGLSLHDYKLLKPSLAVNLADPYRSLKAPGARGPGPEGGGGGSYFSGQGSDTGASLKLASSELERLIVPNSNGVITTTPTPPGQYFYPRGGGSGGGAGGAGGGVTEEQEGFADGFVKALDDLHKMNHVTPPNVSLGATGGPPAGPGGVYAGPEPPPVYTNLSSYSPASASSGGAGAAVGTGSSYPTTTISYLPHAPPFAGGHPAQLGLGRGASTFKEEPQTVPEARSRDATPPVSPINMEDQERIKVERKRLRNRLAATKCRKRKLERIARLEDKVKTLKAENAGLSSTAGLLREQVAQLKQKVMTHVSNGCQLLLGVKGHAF
Assay: co-IP

binding: binds
Substance: HDAC3 (from UniProt O15379 1-428) (enzyme)
